Data reported in the supplement of paper PMC10331698.
± gives the standard deviation of the averaged measurements. Most entries show no effect beyond the scatter of the controls.

Key:
Assay in all cases: level (log10 ratio to DMSO vehicle control); higher = higher biomarker level / cell amount than vehicle control
[1] = compound: C=C(C)C(=O)OCC(F)(F)C(F)(F)C(F)(F)C(F)(F)C(F)(F)C(F)(F)C(F)(F)F; conditions: in DMSO
Experimental: (§1)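 BioMAP Diversity Plus panel of 12 human primary cell co-culture systems (3C, 4H, LPS, SAg, BT, BF4T, BE3C, CASM3C, HDF3CGF, KF3CT, MyoF, Mphg). Compounds were added 1 h before stimulation and left for 24 h (MyoF 48 h; BT 72 h for soluble read-outs or 6 d for IgG). Biomarkers were read by ELISA, cytotoxicity by SRB, PBMC viability and proliferation by Alamar Blue. Each well value was divided by the mean of 8 DMSO control wells on the same plate and log10 transformed; duplicate blinded samples were tested at 4 concentrations.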

[2] = compound: C=CC(=O)OCC(F)(F)C(F)(F)C(F)(F)C(F)(F)C(F)(F)C(F)(F)C(F)(F)F [1H,1H-Perfluorooctyl acrylate]; conditions: 2200 nM; in DMSO
Experimental: as §1

[3] = compound: C=CC(F)(F)C(F)(F)C(F)(F)C(F)(F)C(F)(F)C(F)(F)C(F)(F)C(F)(F)C=C [1,8-Divinylperfluorooctane]; conditions: in DMSO
Experimental: as §1

[4] = compound: COC(=O)C(F)(F)C(F)(F)OC(F)(C(F)(F)F)C(F)(F)OC(F)=C(F)F [Methyl perfluoro(3-(1-ethenyloxypropan-2-yloxy)propanoate)]; conditions: in DMSO
Experimental: as §1

[5] = compound: CO[Si](C)(CCC(F)(F)C(F)(F)C(F)(F)C(F)(F)C(F)(F)C(F)(F)F)OC [Dimethoxymethyl((perfluorohexyl)ethyl)silane]; conditions: in DMSO
Experimental: as §1

[6] = compound: FC(F)(F)C(F)(F)C(F)(F)CC1CO1 [1H,1H-Heptafluorobutyl epoxide]; conditions: 2200 nM; in DMSO
Experimental: as §1

[7] = compound: FC(F)(F)C(F)(F)C(F)(F)CI [Heptafluorobutyl iodide]; conditions: 2200 nM; in DMSO
Experimental: as §1

[8] = compound: NC(=O)C(F)(F)C(F)(F)C(F)(F)C(F)F; conditions: in DMSO
Experimental: as §1

[9] = compound: NC(=O)C(F)(F)C(F)(F)F [Pentafluoropropionamide]; conditions: 2200 nM; in DMSO
Experimental: as §1

[10] = compound: NS(=O)(=O)C(F)(F)C(F)(F)C(F)(F)C(F)(F)C(F)(F)C(F)(F)C(F)(F)C(F)(F)F [Perfluorooctanesulfonamide]; conditions: in DMSO
Experimental: as §1

[11] = compound: O=C(O)C(F)(F)C(F)(F)C(F)F [4H-Perfluorobutanoic acid]; conditions: in DMSO
Experimental: as §1

[12] = compound: O=P(O)(O)CCC(F)(F)C(F)(F)C(F)(F)C(F)(F)C(F)(F)C(F)(F)F [2-(Perfluorohexyl)ethylphosphonic acid]; conditions: 2200 nM; in DMSO
Experimental: as §1

[13] = compound: O=S(=O)(F)C(F)(F)C(F)(F)C(F)(F)C(F)(F)C(F)(F)C(F)(F)C(F)(F)C(F)(F)F [Perfluorooctanesulfonyl fluoride]; conditions: 2200 nM; in DMSO
Experimental: as §1

[14] = compound: O=S(=O)(O)C(F)(F)C(F)(F)C(F)(F)C(F)(F)C(F)(F)C(F)(F)C(F)(F)C(F)(F)F [Perfluorooctanesulfonic acid]; conditions: 2200 nM; in DMSO
Experimental: as §1

[15] = compound: O=S(=O)(O)C(F)(F)C(F)(F)C(F)(F)C(F)(F)C(F)(F)C(F)(F)C(F)(F)C(F)(F)F [Potassium perfluorooctanesulfonate]; conditions: 2200 nM; in DMSO
Experimental: as §1

[16] = compound: O=S(=O)(OCC(F)(F)F)C(F)(F)C(F)(F)C(F)(F)C(F)(F)F [2,2,2-Trifluoroethyl perfluorobutanesulfonate]; conditions: 2200 nM; in DMSO
Experimental: as §1

[17] = compound: OCC(F)(F)C(F)(F)C(F)(F)C(F)(F)C(F)(F)C(F)F [1H,1H,7H-Dodecafluoro-1-heptanol]; conditions: 2200 nM; in DMSO
Experimental: as §1

[18] = compound: OCCCCC(F)(F)C(F)(F)C(F)(F)C(F)(F)F [4:4 Fluorotelomer alcohol]; conditions: 2200 nM; in DMSO
Experimental: as §1

BE3C:CXCL9/MIG
level (log10) ([1]; 740 nM): 0.013 ± 0.0028 | level (log10) ([1]; 2200 nM): 0.001 ± 0.016 | level (log10) [2]: -0.002 ± 0.0042 | level (log10) ([3]; 740 nM): 0.002 ± 0.011 | level (log10) ([3]; 2200 nM): -0.006 ± 0.014 | level (log10) ([4]; 740 nM): -0.0015 ± 0.0035 | level (log10) ([4]; 2200 nM): 0.002 ± 0.0071 | level (log10) ([5]; 740 nM): -0.0065 ± 0.0064 | level (log10) ([5]; 2200 nM): -0.003 ± 0.0099 | level (log10) [6]: -0.0115 ± 0.012 | level (log10) [7]: -0.009 ± 0.0042 | level (log10) ([8]; 2200 nM): -0.0015 ± 0.037 | level (log10) ([8]; 6700 nM): 0.012 ± 0.024 | level (log10) ([8]; 20000 nM): 0.009 ± 0.0071 | level (log10) ([8]; 60000 nM): 0.006 ± 0.0085 | level (log10) [9]: 0.003 ± 0.0071 | level (log10) ([10]; 2200 nM): -0.0005 ± 0.012 | level (log10) ([10]; 6700 nM): -0.0015 ± 0.0021 | level (log10) ([10]; 20000 nM): 0.013 ± 0.013 | level (log10) ([11]; 2200 nM): -0.002 ± 0.0085 | level (log10) ([11]; 6700 nM): -0.0015 ± 0.011 | level (log10) ([11]; 20000 nM): 0.0085 ± 0.022 | level (log10) ([11]; 60000 nM): 0.0135 ± 0.0092 | level (log10) [12]: 0.0045 ± 0.016 | level (log10) [13]: 0.0055 ± 0.0078 | level (log10) [14]: 0.015 ± 0.03 | level (log10) [15]: 0.013 ± 0.016 | level (log10) [16]: 0.0165 ± 0.016 | level (log10) [17]: 0.006 ± 0.0071 | level (log10) [18]: 0.006 ± 0.016

lMphg:sIL-10
level (log10) ([1]; 740 nM): 0.0515 ± 0.043 | level (log10) ([1]; 2200 nM): -0.0095 ± 0.036 | level (log10) [2]: -0.0455 ± 0.026 | level (log10) ([3]; 740 nM): 0.004 ± 0.045 | level (log10) ([3]; 2200 nM): 0.02 ± 0.061 | level (log10) ([4]; 740 nM): 0.0235 ± 0.061 | level (log10) ([4]; 2200 nM): -0.029 ± 0.0071 | level (log10) ([5]; 740 nM): 0.0155 ± 0.053 | level (log10) ([5]; 2200 nM): -0.0125 ± 0.049 | level (log10) [6]: 0.002 ± 0.027 | level (log10) [7]: 0.044 ± 0.0085 | level (log10) ([8]; 2200 nM): 0.04 ± 0.033 | level (log10) ([8]; 6700 nM): -0.013 ± 0.023 | level (log10) ([8]; 20000 nM): -0.0715 ± 0.005 | level (log10) ([8]; 60000 nM): -0.021 ± 0.047 | level (log10) [9]: 0.0105 ± 0.039 | level (log10) ([10]; 2200 nM): -0.0535 ± 0.1 | level (log10) ([10]; 6700 nM): -0.068 ± 0.021 | level (log10) ([10]; 20000 nM): -0.169 ± 0.025 | level (log10) ([11]; 2200 nM): 0 ± 0.028 | level (log10) ([11]; 6700 nM): -0.0495 ± 0.096 | level (log10) ([11]; 20000 nM): -0.0605 ± 0.054 | level (log10) ([11]; 60000 nM): -0.019 ± 0.0014 | level (log10) [12]: -0.0875 ± 0.037 | level (log10) [13]: 0.0495 ± 0.013 | level (log10) [14]: -0.046 ± 0.031 | level (log10) [15]: 0.0225 ± 0.0035 | level (log10) [16]: 0.045 ± 0.064 | level (log10) [17]: 0.042 ± 0.054 | level (log10) [18]: -0.028 ± 0.037

HDF3CGF:EGFR
level (log10) ([1]; 740 nM): -0.037 ± 0.0042 | level (log10) ([1]; 2200 nM): -0.0025 ± 0.019 | level (log10) [2]: -0.19 ± 0.02 | level (log10) ([3]; 740 nM): -0.033 ± 0.0085 | level (log10) ([3]; 2200 nM): 0.0155 ± 0.0092 | level (log10) ([4]; 740 nM): 0.01 ± 0.075 | level (log10) ([4]; 2200 nM): -0.0305 ± 0.042 | level (log10) ([5]; 740 nM): 0.01 ± 0.033 | level (log10) ([5]; 2200 nM): -0.007 ± 0.0028 | level (log10) [6]: 0.022 ± 0.028 | level (log10) [7]: -0.061 ± 0.051 | level (log10) ([8]; 2200 nM): 0.006 ± 0.034 | level (log10) ([8]; 6700 nM): 0.001 ± 0.033 | level (log10) ([8]; 20000 nM): 0.0025 ± 0.046 | level (log10) ([8]; 60000 nM): 0.0125 ± 0.043 | level (log10) [9]: -0.031 ± 0.011 | level (log10) ([10]; 2200 nM): 0.0275 ± 0.03 | level (log10) ([10]; 6700 nM): -0.016 ± 0.014 | level (log10) ([10]; 20000 nM): -0.171 ± 0.016 | level (log10) ([11]; 2200 nM): 0.036 ± 0.076 | level (log10) ([11]; 6700 nM): -0.0155 ± 0.054 | level (log10) ([11]; 20000 nM): 0.0005 ± 0.019 | level (log10) ([11]; 60000 nM): 0.0725 ± 0.12 | level (log10) [12]: -0.005 ± 0.078 | level (log10) [13]: -0.0965 ± 0.2 | level (log10) [14]: -0.0145 ± 0.039 | level (log10) [15]: 0.0165 ± 0.025 | level (log10) [16]: 0.0325 ± 0.033 | level (log10) [17]: 0.018 ± 0.057 | level (log10) [18]: -0.0065 ± 0.028

BF4T:CCL26/Eotaxin-3
level (log10) ([1]; 740 nM): 0.0125 ± 0.073 | level (log10) ([1]; 2200 nM): -0.013 ± 0.041 | level (log10) [2]: -0.004 ± 0.014 | level (log10) ([3]; 740 nM): -0.0115 ± 0.052 | level (log10) ([3]; 2200 nM): -0.0115 ± 0.032 | level (log10) ([4]; 740 nM): 0.0375 ± 0.042 | level (log10) ([4]; 2200 nM): -0.012 ± 0.0028 | level (log10) ([5]; 740 nM): 0.014 ± 0.018 | level (log10) ([5]; 2200 nM): -0.0135 ± 0.00071 | level (log10) [6]: 0.002 ± 0.044 | level (log10) [7]: 0.0065 ± 0.047 | level (log10) ([8]; 2200 nM): 0.027 ± 0.041 | level (log10) ([8]; 6700 nM): -0.001 ± 0.0085 | level (log10) ([8]; 20000 nM): -0.012 ± 0.033 | level (log10) ([8]; 60000 nM): 0.0005 ± 0.018 | level (log10) [9]: -0.0045 ± 0.06 | level (log10) ([10]; 2200 nM): -0.046 ± 0.048 | level (log10) ([10]; 6700 nM): -0.117 ± 0.017 | level (log10) ([10]; 20000 nM): -0.169 ± 0.014 | level (log10) ([11]; 2200 nM): -0.0325 ± 0.0064 | level (log10) ([11]; 6700 nM): -0.035 ± 0.011 | level (log10) ([11]; 20000 nM): 0.0085 ± 0.0035 | level (log10) ([11]; 60000 nM): -0.0115 ± 0.063 | level (log10) [12]: 0.0275 ± 0.094 | level (log10) [13]: 0.0285 ± 0.0021 | level (log10) [14]: -0.0105 ± 0.08 | level (log10) [15]: -0.015 ± 0.11 | level (log10) [16]: -0.0115 ± 0.039 | level (log10) [17]: 0.041 ± 0.09 | level (log10) [18]: 0.05 ± 0.079
